According to PubChem BioAssay AID1487 (National Center for Advancing Translational Sciences (NCATS), 2009):
Some of the results follow. The main result of the screen is listed elsewhere. These columns were measured beside it and carry no call. The list favours compounds with an active or inconclusive main result. The note in brackets gives the kind of curve behind each potency; many fits are weak.

Experiment: qHTS Assay for Modulators of Lamin A Splicing
Details: HeLa LMNA splicing GFP/RFP minigene ratio, 48 h
In short: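 Read-out is the ratio of GFP to DsRed2 object intensity, acquired by 488 nm laser-scanning cytometry on HeLa lamin A-EGFP minigene reporter cells. Compound incubation 48 hrs at 37 °C in Opti-MEM with 2% FBS; DMSO 0.5% final.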

[1] = measured here: GFP splicing reporter channel
[2] = measured here: RFP viability control channel

Structure (SMILES) | AC50 [1] | AC50 [2]
O=C1OCCC1Sc1nc2ccccc2s1 (stereo not given) | 35.5 µM [falling, partial curve, poor fit] | 35.5 µM [falling, single point]
CCc1ccc(-n2cnc3cc(C(=O)NCc4ccc(C)cc4)ccc32)cc1 | 6.31 µM [falling, partial curve] | 
COc1ccc2c(OC)c3ccoc3nc2c1OC | 0.000891 µM [falling, full curve, poor fit] | 3.16 µM [falling, partial curve, poor fit]
CSc1ccc(CN(C)CC(=O)Nc2cccc(Br)c2)cc1 |  | 11.2 µM [rising, single point]
CC(C)c1ccc(O)c(NC(=S)NC(=O)CCc2ccccc2)c1 | 12.6 µM [rising, partial curve, poor fit] | 
CCOC(=O)c1c(C)[nH]c(CCC(=O)NCc2ccc(CC)cc2)c1C | 0.126 µM [rising, full curve, poor fit] | 0.0251 µM [rising, full curve, poor fit]
CCCOc1ccc(-c2cc(C(=O)NCC3CCCO3)c3ccccc3n2)cc1 (stereo not given) | 35.5 µM [rising, single point] | 
Cc1ccn2cc(-c3ccc(NS(=O)(=O)c4ccccc4)cc3)nc2c1 | 15.8 µM [rising, partial curve] | 28.2 µM [rising, single point]
CNC(=O)CSc1nnc(C(C)C)n1C | 0.00891 µM [rising, full curve, poor fit] | 0.0126 µM [rising, full curve, poor fit]
C=CCOc1c(Br)cc(/C=N/Nc2ccc(C(=O)O)cc2)cc1OCC | 31.6 µM [rising, single point] | 35.5 µM [rising, single point]
COc1ccc(C2CC(c3cccs3)=NN2c2ccc(F)cc2)cc1OC (stereo not given) |  | 11.2 µM [rising, single point]
Cc1ccc(OCCOCCOc2ccc(Br)cc2/C=N\NC(=O)c2ccncc2)cc1 | 14.1 µM [rising, single point] | 35.5 µM [rising, single point]
CCOC(=O)C1=C(c2ccccc2)NC(SCC(=O)Nc2ccccc2C)=C(C#N)C1c1ccco1 (stereo not given) |  | 10 µM [rising, single point]
COc1cc(C(=O)NC2=NCCS2)ccc1OCc1c(C)noc1C | 35.5 µM [rising, single point] | 
Cc1[nH]nc(-c2ccc(O)c(C)c2O)c1Oc1ccccc1 |  | 11.2 µM [rising, single point]
O=C(NCc1cccnc1)c1ccc(COc2ccccc2Br)cc1 |  | 35.5 µM [rising, single point]
S=C(NNc1ccc2ccccc2c1)NC1CCCCC1 |  | 35.5 µM [rising, single point]
CC(C)(C)c1ccc(-c2conc2N)cc1 |  | 12.6 µM [rising, partial curve]
COc1ccc2cc(CN(Cc3cccs3)Cc3nnnn3Cc3ccccc3)c(=O)[nH]c2c1 |  | 11.2 µM [rising, partial curve]

Single values from above.
CSc1ccc(CN(C)CC(=O)Nc2cccc(Br)c2)cc1 | AC50 [2]: 11.2 µM [rising, single point]
O=C(NCc1cccnc1)c1ccc(COc2ccccc2Br)cc1 | AC50 [2]: 35.5 µM [rising, single point]

Continued:

Structure (SMILES) | AC50 [1] | AC50 [2]
CC(=O)c1sc(NC(=O)C2(F)C(F)(F)C(F)(F)C(F)(F)C(F)(F)C2(F)F)nc1C |  | 4.47 µM [rising, partial curve]
O=C(N1CCN=C1SCc1cccnc1)C12CC3CC(CC(C3)C1)C2 |  | 22.4 µM [rising, single point]
CC(=O)Nc1sc2c(c1C(c1ccncc1)N1CCOCC1)CCCC2 (stereo not given) | 0.00282 µM [falling, full curve] | 0.00891 µM [falling, full curve]
CC(=O)c1ccc(OCCCC(=O)Nc2ccc(C)c(S(=O)(=O)N(C)C)c2)cc1 |  | 25.1 µM [rising, single point]
Clc1ccc(/C=C/c2nc3ccccc3[nH]2)cc1 |  | 20 µM [falling, single point]
Cc1cc(C)c(C#N)c(SCc2ccccc2F)n1 | 3.55 µM [falling, single point] | 2 µM [falling, full curve]
CCOc1ccc(Br)cc1S(=O)(=O)Nc1ccccc1N1CCOCC1 | 15.8 µM [rising, single point] | 15.8 µM [rising, single point]
O=C(CCl)Nc1ccccc1Sc1ccc(Cl)cc1 | 35.5 µM [falling, single point] | 35.5 µM [falling, single point]
CCC(=O)Nc1nc2ccccc2n1Cc1ccccc1C | 35.5 µM [rising, single point] | 35.5 µM [rising, single point]
Cc1ccc(C)c(N2CCN(C(=O)C3CCN(c4nc5ccc(C)cc5[nH]4)CC3)CC2)c1 | 2 µM [falling, partial curve] | 
CCOc1ccc(C(=O)CCN2CCCCCC2)cc1 |  | 35.5 µM [falling, single point]
O=C(NCc1ccncc1)C(=O)NCC(c1ccccc1)c1ccccc1 |  | 11.2 µM [rising, single point]
Clc1cccc(C[n+]2cc(-c3ccccc3)n3c2CCC3)c1 | 12.6 µM [rising, partial curve] | 25.1 µM [rising, partial curve]
Cc1cccc(CCNC(=O)c2ccc3c(c2)N(Cc2ccccc2F)C(=O)c2ccccc2S3)c1 | 0.158 µM [falling, full curve, poor fit] | 
Cc1ccc(-c2cc(C(=O)Nc3cc(C)on3)no2)cc1 |  | 0.0708 µM [rising, full curve, poor fit]
CC1CCN(CCCOc2ccc(Cl)cc2Br)CC1 | 7.08 µM [falling, full curve] | 8.91 µM [falling, partial curve, poor fit]
Cn1cnc(S(=O)(=O)NCc2ccccc2)c1 |  | 3.55 µM [falling, partial curve, poor fit]
CCC(C(=O)Nc1cc(OC)cc(OC)c1)n1nc(-c2ccc(C)c(C)c2)ccc1=O (stereo not given) |  | 0.282 µM [falling, full curve, poor fit]
COc1ccc(C2CC(c3cccs3)=NN2C(=O)CSc2nc3ccccc3o2)cc1 (stereo not given) |  | 17.8 µM [rising, partial curve, poor fit]

Structure (SMILES) | AC50 [1] | AC50 [2]
O=c1c(=NNc2ccccc2Cl)c(=O)c2ccccc12 | 35.5 µM [falling, single point] | 20 µM [falling, partial curve]
O=C(Nc1ccccc1C(=O)NCCN1CCOCC1)c1ccc(Cl)cc1Cl | 0.0141 µM [rising, full curve, poor fit] | 
CC(C)N(C(=O)CSc1nnc(CSc2ncccn2)n1C)C(C)C | 0.0126 µM [falling, full curve, poor fit] | 
COc1ccc(F)cc1S(=O)(=O)Nc1ccc2c(c1)OCCO2 |  | 20 µM [rising, single point]
CC1=C(C(=O)Nc2ccccc2C(F)(F)F)C(c2sccc2C)NC(=S)N1 (stereo not given) | 6.31 µM [falling, partial curve, poor fit] | 22.4 µM [rising, single point]
CCc1ccc(CN(Cc2ccco2)c2cnc(S(C)(=O)=O)nc2C(=O)Nc2ccccc2Cl)cc1 | 5.62 µM [falling, single point] | 6.31 µM [falling, single point]
CC1CC(N(C(=O)C2CC2)c2ccccc2)c2ccccc2N1C(=O)C1CC1 (stereo not given) | 10 µM [rising, partial curve] | 15.8 µM [rising, partial curve]
Fc1ccc(Nc2c3c(nc4ccccc24)CCC3)cc1 | 2.82 µM [falling, full curve] | 2 µM [falling, partial curve, poor fit]
COc1ccc(CC(=O)Nc2cccc(S(=O)(=O)N3CCCCCC3)c2)cc1OC | 1.26 µM [rising, partial curve] | 1.12 µM [rising, full curve]
Cc1ccc2nc(/C(C#N)=C\c3ccc(N4CCCCC4)c([N+](=O)[O-])c3)[nH]c2c1 | 15.8 µM [rising, single point] | 
C=CCCCCCCCCCCC/C=C/C(O)COC(C)=O (stereo not given) | 4.47 µM [rising, full curve, poor fit] | 8.91 µM [rising, partial curve, poor fit]
CCc1[nH]nc2c1C(c1ccncc1)C(C#N)=C(N)O2 (stereo not given) |  | 15.8 µM [rising, single point]
CCS(=O)(=O)N1Cc2ccccc2CC1C(=O)Nc1nc2ccc(F)cc2s1 (stereo not given) |  | 10 µM [rising, partial curve, poor fit]
CC(CC(=O)Nc1ncc([N+](=O)[O-])s1)c1ccccc1 (stereo not given) | 0.631 µM [rising, full curve] | 20 µM [rising, single point]
Cc1cc(C(F)(F)F)nn1CC(=O)NCc1ccco1 |  | 8.91 µM [falling, partial curve, poor fit]
COc1ccc(Cn2c(-c3ccc(Cl)cc3)c[n+]3ccccc23)cc1 |  | 5.01 µM [rising, full curve]
Oc1ccccc1N1CCN(C(=S)NCc2ccccc2)CC1 | 1 µM [falling, partial curve, poor fit] | 0.0447 µM [falling, full curve, poor fit]
CNC(=S)N/N=C/c1ccc(-c2ccc(Cl)c([N+](=O)[O-])c2)o1 | 15.8 µM [falling, single point] | 12.6 µM [falling, partial curve]
